Values from PubChem BioAssay AID1053208 (Peter MacCallum Cancer Centre, 2014).

Purpose: 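Synthetic lethal interactions between gene loss and doxorubicin in osteosarcoma cells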 (primary screen)
Cells: mouse osteosarcoma cells, early-passage culture from an engineered mouse model of fibroblastic bone tumour
Knock-down reagent: siRNA pool against mouse genes, 40 nM
Time to read-out: about 120 h (48 h before drug, then 72 h with drug)
Treatment: doxorubicin 100 nM for 72 h, roughly 30-40% inhibitory dose
Measured: 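Luminescent ATP signal taken as viability with or without 100 nM doxorubicin for 72 h; mean of two wells set against non-targeting siRNA and turned into robust z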
Scale: viability z-score with doxorubicin and doxorubicin viability vs non-targeting: higher = more viable cells under doxorubicin; viability z-score without drug: higher = more viable cells with knock-down alone; z-score of drug to no-drug ratio: higher = less drug sensitisation by knock-down
Rule for the call: 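Called active if knock-down leaves viability unchanged without drug (z within -2 to 2) but lowers it with doxorubicin (z at or under -2)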
The deposit covers about 17,000 reagents; this is an unselected part. 788 of all reagents (4.7%) were called active. 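Calls rest on z-score classes alone; an extra cut-off of viability at most 70% of control was not applied to them.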 Unmarked entries are inactive. Reagents against one gene are numbered here.

gene,pool no.,combined z-score class,viability z-score with doxorubicin,viability z-score without drug,z-score of drug to no-drug ratio,doxorubicin viability vs non-targeting
Fam110a,1,no change with or without drug,0.11,-0.17,0.34,0.95
Ppara,1,no change with or without drug,-0.34,0.17,-0.34,0.91
Fut4,1,no change with or without drug,0,0.84,-0.45,0.94
Or1aa2,1,no change with or without drug,0.56,-0.17,0.79,0.99
Clspn,1,no change with or without drug,-1.57,0.51,-1.8,0.8
Sclt1,1,no change with or without drug,0.9,-0.17,1.24,1.02
Cfap100,1,no change with or without drug,-0.67,0.17,-0.67,0.88
Mthfd1l,1,no change with or without drug,-0.45,0.17,-0.45,0.9
Kcns2,1,no change with or without drug,-0.45,0.84,-0.9,0.9
Or8b101,1,no change with or without drug,0,1.52,-0.9,0.94
Myod1,1,no change with or without drug,0,-0.17,0.22,0.94
Elmod2,1,high cell count without drug only,-1.69,2.19,-2.81,0.79
Slc8a1,1,no change with or without drug,0,-0.67,0.56,0.94
Slc8a1,2,no change with or without drug,1.24,1.85,0.11,1.05
Noct,1,no change with or without drug,-0.56,0.17,-0.56,0.89
Or4g16,1,no change with or without drug,-0.11,-1.18,0.9,0.93
Ackr1,1,no change with or without drug,-0.34,-0.51,0.11,0.91
Gpr27,1,no change with or without drug,-0.67,-1.18,0.22,0.88
Clic1,1,no change with or without drug,-1.8,-0.51,-1.46,0.78
Stac,1,no change with or without drug,-0.45,-0.67,0.11,0.9
Nme4,1,no change with or without drug,0.67,-0.51,1.24,1
Wdr20,1,no change with or without drug,-1.12,0.17,-1.12,0.84
Srrm2,1,no change with or without drug,0.45,1.18,-0.22,0.98
Prpf39,1,no change with or without drug,0.67,-0.84,1.46,1
Dpp3,1,no change with or without drug,1.57,-0.17,1.91,1.08
ABCC8,1,no change with or without drug,0,-0.84,0.67,0.94
Il17rc,1,no change with or without drug,0.67,0.51,0.45,1
H2-Ea,1,no change with or without drug,0.67,-0.51,1.24,1

Entries listed so far whose target name starts with M or m (2):
gene,pool no.,combined z-score class,viability z-score with doxorubicin,viability z-score without drug,z-score of drug to no-drug ratio,doxorubicin viability vs non-targeting
Mthfd1l,1,no change with or without drug,-0.45,0.17,-0.45,0.9
Myod1,1,no change with or without drug,0,-0.17,0.22,0.94

The results go on.
gene,pool no.,combined z-score class,viability z-score with doxorubicin,viability z-score without drug,z-score of drug to no-drug ratio,doxorubicin viability vs non-targeting
Tssk5,1,no change with or without drug,0.45,0.51,0.22,0.98
Or8k25,1,low cell count with doxorubicin only (active),-3.37,-0.51,-3.15,0.64
Or8k25,2,no change with or without drug,-1.12,-1.85,0.22,0.84
Ptpn7,1,no change with or without drug,1.01,0.34,0.9,1.03
Krt23,1,no change with or without drug,-1.35,-1.01,-0.67,0.82
Cryzl1,1,no change with or without drug,-1.24,-0.17,-1.12,0.83
Fut2,1,no change with or without drug,0.67,0.34,0.56,1
Acsbg1,1,no change with or without drug,0.79,1.18,0.11,1.01
Obox3,1,no change with or without drug,-0.22,0.51,-0.45,0.92
Daxx,1,no change with or without drug,1.01,0.51,0.79,1.03
Oaz2,1,no change with or without drug,-0.67,-0.17,-0.45,0.88
Chd1l,1,no change with or without drug,-1.35,1.18,-2.02,0.82
Vmn1r82,1,no change with or without drug,1.12,0.17,1.12,1.04
Kirrel1,1,no change with or without drug,1.57,1.52,0.67,1.08
Kirrel1,2,no change with or without drug,-0.45,-0.51,0,0.9
Stx6,1,no change with or without drug,0.34,-0.84,1.12,0.97
Zfp33b,1,no change with or without drug,0.22,1.85,-0.79,0.96
Pcdh15,1,no change with or without drug,1.69,0.51,1.46,1.09
Atxn2,1,no change with or without drug,0.79,1.18,0.11,1.01
Myl7,1,no change with or without drug,-0.45,-0.67,0.11,0.9
Inpp4a,1,no change with or without drug,0,0,0.11,0.94
Cxcr4,1,no change with or without drug,0.45,0.17,0.45,0.98
